# Reference: the supplement of paper PMC10849652
# Amino acid sequences for entries named in this document (tags omitted). A change or cut given only in a name is not applied to a line headed by its entry.
# UniProt Q8N9R8: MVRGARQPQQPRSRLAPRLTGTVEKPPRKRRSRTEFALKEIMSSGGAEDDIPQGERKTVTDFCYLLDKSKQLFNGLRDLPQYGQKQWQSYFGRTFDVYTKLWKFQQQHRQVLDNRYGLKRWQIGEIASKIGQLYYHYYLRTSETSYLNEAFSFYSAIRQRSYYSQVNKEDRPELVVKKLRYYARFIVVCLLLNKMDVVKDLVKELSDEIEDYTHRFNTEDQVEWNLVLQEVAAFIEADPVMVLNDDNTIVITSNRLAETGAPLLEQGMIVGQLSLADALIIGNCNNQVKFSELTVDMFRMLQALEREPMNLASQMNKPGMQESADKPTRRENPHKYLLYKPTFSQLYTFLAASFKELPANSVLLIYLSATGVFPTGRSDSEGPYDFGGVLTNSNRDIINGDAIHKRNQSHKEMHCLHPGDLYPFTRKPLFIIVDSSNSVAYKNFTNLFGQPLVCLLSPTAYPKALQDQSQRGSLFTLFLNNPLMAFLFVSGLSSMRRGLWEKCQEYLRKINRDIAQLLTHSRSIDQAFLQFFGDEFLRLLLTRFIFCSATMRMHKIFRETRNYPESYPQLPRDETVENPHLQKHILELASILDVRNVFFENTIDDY
# UniProt Q96FQ6: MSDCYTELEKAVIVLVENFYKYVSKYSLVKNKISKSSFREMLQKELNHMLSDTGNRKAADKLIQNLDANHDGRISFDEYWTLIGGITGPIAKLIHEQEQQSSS
# UniProt Q86SQ7: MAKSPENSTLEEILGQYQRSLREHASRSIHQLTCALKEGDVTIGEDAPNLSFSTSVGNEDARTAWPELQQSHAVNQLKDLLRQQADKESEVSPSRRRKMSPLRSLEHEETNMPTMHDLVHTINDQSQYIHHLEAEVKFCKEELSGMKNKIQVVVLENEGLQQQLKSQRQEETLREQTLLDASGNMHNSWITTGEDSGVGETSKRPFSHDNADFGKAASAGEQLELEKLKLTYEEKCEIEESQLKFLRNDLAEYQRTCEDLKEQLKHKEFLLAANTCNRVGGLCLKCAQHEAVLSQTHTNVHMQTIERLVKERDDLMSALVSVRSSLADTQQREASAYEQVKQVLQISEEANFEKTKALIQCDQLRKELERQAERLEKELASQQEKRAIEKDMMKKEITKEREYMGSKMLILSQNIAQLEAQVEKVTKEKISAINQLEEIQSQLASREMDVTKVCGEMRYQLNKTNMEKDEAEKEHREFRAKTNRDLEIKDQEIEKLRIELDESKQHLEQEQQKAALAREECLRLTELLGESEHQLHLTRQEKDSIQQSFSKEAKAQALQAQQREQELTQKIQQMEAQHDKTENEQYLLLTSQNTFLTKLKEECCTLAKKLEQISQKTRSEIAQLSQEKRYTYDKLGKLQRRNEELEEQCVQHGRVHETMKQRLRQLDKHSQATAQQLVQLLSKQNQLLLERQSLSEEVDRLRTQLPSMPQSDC
# UniProt Q9NQC3: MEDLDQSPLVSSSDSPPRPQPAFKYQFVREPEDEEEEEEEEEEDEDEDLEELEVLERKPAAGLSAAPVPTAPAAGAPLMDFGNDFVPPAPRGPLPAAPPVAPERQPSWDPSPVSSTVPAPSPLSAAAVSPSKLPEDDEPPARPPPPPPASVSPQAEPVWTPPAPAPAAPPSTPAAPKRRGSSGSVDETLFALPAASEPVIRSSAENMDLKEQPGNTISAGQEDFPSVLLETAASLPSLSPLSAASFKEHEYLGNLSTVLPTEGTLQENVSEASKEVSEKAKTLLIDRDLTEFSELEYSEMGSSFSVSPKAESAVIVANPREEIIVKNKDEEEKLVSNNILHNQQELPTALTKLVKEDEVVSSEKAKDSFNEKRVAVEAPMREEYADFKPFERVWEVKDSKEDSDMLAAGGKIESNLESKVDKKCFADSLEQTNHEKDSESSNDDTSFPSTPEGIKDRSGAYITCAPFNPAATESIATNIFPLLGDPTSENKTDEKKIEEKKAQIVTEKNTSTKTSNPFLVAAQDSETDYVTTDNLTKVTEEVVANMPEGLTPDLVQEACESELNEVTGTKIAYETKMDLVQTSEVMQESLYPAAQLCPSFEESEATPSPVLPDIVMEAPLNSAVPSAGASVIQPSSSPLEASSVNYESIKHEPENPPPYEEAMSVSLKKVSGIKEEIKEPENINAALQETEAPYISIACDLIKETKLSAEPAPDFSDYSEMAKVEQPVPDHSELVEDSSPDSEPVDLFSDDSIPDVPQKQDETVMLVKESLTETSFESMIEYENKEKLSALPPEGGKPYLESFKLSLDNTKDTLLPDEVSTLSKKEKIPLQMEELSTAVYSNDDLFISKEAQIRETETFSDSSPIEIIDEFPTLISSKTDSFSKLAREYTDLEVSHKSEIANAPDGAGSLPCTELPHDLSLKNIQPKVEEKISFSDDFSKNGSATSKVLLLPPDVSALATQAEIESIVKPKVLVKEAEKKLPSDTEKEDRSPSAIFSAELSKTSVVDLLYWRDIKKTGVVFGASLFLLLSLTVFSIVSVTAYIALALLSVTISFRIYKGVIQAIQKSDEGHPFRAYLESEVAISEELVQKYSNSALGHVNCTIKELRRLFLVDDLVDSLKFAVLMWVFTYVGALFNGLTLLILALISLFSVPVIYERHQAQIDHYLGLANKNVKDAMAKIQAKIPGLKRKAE
# UniProt Q5VUM1: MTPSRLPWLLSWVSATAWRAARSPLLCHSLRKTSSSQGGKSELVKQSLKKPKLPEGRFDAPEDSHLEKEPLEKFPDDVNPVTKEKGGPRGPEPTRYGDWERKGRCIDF
# UniProt O75446: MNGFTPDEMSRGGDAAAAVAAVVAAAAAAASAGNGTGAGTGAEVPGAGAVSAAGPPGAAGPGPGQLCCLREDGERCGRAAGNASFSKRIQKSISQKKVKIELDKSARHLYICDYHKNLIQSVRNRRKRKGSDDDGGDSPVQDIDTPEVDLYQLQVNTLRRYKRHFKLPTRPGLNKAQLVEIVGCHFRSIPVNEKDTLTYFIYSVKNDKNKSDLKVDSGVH
# UniProt Q99470: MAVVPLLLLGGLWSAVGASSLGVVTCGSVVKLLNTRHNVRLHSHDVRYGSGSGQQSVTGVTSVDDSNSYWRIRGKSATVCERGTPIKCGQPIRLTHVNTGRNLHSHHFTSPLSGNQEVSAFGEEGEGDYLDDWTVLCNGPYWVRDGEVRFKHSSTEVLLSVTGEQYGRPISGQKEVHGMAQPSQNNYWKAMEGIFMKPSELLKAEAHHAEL
# UniProt Q8WWV3: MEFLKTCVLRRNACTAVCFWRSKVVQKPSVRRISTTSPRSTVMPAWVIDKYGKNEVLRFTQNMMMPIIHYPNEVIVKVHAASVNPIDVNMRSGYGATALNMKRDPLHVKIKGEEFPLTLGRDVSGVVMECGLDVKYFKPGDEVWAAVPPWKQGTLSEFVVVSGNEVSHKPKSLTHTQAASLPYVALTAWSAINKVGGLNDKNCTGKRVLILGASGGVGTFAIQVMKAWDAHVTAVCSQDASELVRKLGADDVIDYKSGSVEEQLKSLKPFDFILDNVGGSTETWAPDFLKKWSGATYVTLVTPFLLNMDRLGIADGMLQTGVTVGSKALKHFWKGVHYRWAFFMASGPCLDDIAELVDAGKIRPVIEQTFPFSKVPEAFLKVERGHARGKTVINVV
# UniProt P57060: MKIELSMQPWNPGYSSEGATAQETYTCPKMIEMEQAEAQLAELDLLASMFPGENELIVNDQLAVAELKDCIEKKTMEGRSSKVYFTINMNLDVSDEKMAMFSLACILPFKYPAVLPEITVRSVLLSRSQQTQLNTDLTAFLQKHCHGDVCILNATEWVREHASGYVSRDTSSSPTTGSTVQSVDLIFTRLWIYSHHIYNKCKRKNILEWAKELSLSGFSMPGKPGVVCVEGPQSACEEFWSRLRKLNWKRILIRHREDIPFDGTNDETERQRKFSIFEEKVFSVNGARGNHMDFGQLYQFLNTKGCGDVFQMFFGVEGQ
# UniProt Q8NBX0: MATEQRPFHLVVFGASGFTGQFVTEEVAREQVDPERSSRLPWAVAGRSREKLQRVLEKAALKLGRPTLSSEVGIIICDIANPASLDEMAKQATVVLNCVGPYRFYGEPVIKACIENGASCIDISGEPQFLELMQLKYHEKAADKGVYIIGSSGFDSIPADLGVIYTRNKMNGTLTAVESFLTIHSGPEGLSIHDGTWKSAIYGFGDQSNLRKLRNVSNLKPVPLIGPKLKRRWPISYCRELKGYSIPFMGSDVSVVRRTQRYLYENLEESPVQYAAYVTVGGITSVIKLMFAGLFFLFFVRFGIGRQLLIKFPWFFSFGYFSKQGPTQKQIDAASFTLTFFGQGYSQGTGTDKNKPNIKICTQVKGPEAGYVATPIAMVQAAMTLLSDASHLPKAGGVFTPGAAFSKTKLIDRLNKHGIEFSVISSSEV
# UniProt A6ZKI3: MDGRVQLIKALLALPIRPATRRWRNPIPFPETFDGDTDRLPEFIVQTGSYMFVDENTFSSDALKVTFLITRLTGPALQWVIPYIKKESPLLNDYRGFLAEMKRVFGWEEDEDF
# UniProt Q8IZE3: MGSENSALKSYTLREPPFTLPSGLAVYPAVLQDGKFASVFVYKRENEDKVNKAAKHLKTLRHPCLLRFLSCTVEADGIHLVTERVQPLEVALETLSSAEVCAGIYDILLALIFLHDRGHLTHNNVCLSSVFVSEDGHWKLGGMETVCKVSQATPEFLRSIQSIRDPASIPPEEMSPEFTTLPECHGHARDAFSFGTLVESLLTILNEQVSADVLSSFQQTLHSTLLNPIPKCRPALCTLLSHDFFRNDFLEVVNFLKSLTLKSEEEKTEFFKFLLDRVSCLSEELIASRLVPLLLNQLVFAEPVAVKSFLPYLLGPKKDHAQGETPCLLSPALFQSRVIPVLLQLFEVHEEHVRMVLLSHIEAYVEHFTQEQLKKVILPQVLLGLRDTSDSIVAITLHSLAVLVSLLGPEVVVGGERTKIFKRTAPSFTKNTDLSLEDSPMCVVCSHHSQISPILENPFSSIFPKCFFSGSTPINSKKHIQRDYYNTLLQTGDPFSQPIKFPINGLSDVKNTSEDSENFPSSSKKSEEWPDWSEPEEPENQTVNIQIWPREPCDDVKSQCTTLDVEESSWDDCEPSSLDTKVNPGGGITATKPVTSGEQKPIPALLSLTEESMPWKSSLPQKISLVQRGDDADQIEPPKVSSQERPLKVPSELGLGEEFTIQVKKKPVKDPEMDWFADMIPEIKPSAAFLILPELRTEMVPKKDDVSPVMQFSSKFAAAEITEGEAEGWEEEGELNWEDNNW
# UniProt Q13296: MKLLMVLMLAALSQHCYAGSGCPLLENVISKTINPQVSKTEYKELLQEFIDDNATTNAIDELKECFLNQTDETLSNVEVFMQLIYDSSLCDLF
# UniProt Q5JTH9: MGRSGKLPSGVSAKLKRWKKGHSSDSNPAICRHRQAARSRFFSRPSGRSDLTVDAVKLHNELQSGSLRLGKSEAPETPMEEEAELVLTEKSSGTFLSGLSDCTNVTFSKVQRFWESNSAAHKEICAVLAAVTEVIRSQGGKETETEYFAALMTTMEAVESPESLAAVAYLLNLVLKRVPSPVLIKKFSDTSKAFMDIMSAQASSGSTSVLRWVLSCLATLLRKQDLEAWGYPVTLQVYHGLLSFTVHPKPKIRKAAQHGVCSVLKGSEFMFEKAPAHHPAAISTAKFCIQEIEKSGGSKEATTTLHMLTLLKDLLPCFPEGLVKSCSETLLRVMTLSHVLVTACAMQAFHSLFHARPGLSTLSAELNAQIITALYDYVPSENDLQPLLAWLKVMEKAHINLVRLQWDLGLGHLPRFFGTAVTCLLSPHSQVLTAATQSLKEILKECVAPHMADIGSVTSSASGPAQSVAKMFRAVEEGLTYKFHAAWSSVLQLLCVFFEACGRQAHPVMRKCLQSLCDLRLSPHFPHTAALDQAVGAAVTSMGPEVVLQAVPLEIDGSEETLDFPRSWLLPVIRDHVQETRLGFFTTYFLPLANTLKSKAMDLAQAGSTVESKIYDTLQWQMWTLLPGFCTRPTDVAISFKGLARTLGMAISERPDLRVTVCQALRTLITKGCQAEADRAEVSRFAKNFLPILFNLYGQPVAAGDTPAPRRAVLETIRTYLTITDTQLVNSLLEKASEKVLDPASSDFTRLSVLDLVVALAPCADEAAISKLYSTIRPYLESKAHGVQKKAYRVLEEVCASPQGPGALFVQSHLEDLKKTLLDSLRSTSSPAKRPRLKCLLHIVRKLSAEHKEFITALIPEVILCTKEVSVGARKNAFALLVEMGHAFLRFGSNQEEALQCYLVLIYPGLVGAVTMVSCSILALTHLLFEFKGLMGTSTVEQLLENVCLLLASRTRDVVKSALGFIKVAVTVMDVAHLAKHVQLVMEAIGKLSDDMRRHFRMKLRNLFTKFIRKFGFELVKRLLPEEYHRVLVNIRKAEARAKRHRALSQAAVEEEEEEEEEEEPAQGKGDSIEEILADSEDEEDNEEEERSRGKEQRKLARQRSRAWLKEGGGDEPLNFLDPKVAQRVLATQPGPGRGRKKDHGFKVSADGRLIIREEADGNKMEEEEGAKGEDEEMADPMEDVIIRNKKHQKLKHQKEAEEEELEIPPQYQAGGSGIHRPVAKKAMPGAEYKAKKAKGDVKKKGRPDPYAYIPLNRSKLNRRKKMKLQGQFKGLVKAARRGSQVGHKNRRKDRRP
# The other results are listed elsewhere or left out. Residues, ends and D or L forms follow the SMILES beside them. *: point of attachment. Cbz = O=C(OCc1ccccc1)*
# Key:
# Test in all cases: log2 fold change, soluble protein after heating vs DMSO (PISA); higher = thermal stabilisation; K562 cells, 10 uM, 30 min; active = over 0.2 and 3.5 SD of the protein, either way, in both replicates (recomputed)
# IRAK-1-4 Inhibitor I = compound: C1COCCN1CCN2C3=CC=CC=C3N=C2NC(=O)C4=CC(=CC=C4)[N+](=O)[O-] [IRAK-1-4 Inhibitor I]
# Method in brief: (§1)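 For each measurement, 10 μM compound was applied for 30 min to K562 cells at 2×10^6 cells/mL. Aliquots were heated for 3 min across 48°C-58°C, pooled, and extracted in PBS with 0.5% NP-40 at 4°C; the supernatant after 21,000xg for 90 min was soluble protein. This was quantified by TMTpro 16plex LC-MS/MS with channel sums equalised, and thermal stability was reported relative to control samples from duplicates, on a log2 fold-change scale.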
# [1] = compound: CC(=O)c1cnc2ccc(-c3cc(Cl)c(O)c(Cl)c3)nc2c1N[C@H]1CC[C@H](CN(C)C)CC1
# Method in brief: as §1
# ralimetinib = compound: CC(C)(C)Cn1c(N)nc2ccc(-c3[nH]c(C(C)(C)C)nc3-c3ccc(F)cc3)nc21 [ralimetinib]
# Method in brief: as §1
# [2] = compound: CC(C)(O)CC(=O)NCCn1ccc2ncnc(Nc3ccc(Oc4cccc(C(F)(F)F)c4)c(Cl)c3)c21
# Method in brief: as §1
# [3] = compound: CC(C)C1=C2N=C(C=C(N2N=C1)NCC3=CC=CC=C3)NCCCCCCN
# Method in brief: as §1
# [4] = compound: CC(C)C[C@@H](C=O)NC(=O)[C@H](CC(C)C)NC(=O)[C@H](CC(C)C)NC(=O)OCc1ccccc1
# Method in brief: as §1
# pinometostat = compound: CC(C)N(C[C@H]1O[C@@H](n2cnc3c(N)ncnc32)[C@H](O)[C@@H]1O)[C@H]1C[C@@H](CCc2nc3cc(C(C)(C)C)ccc3[nH]2)C1 [pinometostat]
# Method in brief: as §1
# [5] = compound: CC1=C(C=C(C=C1)NC(=O)C2=CC(=CC=C2)N(C)C)NC(=O)C3=CC=C(C=C3)O
# Method in brief: as §1
# [6] = compound: CC1=NC(=CC=C1)C2=C(N=C(N2)C(C)(C)C)C3=CC4=NC=CN=C4C=C3
# Method in brief: as §1
# Nexturastat A = compound: CCCCN(Cc1ccc(C(=O)NO)cc1)C(=O)Nc1ccccc1 [Nexturastat A]
# Method in brief: as §1
# vemurafenib = compound: CCCS(=O)(=O)Nc1ccc(F)c(C(=O)c2c[nH]c3ncc(-c4ccc(Cl)cc4)cc23)c1F [vemurafenib]
# Method in brief: as §1
# givinostat = compound: CCN(CC)Cc1ccc2cc(COC(=O)Nc3ccc(C(=O)NO)cc3)ccc2c1 [givinostat]
# Method in brief: as §1
# ibrutinib = compound: C=CC(=O)N1CCC[C@@H](n2nc(-c3ccc(Oc4ccccc4)cc3)c3c(N)ncnc32)C1 [ibrutinib]
# Method in brief: as §1
# [7] = compound: CC1=C(C(CC(=O)N1)C2=CC=C(C=C2)C(F)(F)F)C(=O)NC3=C(C=C4C(=C3)C=NN4)F
# Method in brief: as §1
# [8] = compound: CC1=C(C2=C(C=C1)C(=O)C3=CC=CC=C3N2CCCN)C
# Method in brief: as §1
# [9] = compound: CCCc1cc(C)[nH]c(=O)c1CNC(=O)c1cc(-c2ccnc(N3CCN(C)CC3)c2)cc2c1cnn2C(C)C
# Method in brief: as §1
# barasertib = compound: CCN(CCCOc1ccc2c(Nc3cc(CC(=O)Nc4cccc(F)c4)[nH]n3)ncnc2c1)CCOP(=O)(O)O [barasertib]
# Method in brief: as §1
# [10] = compound: CC1=C(C=C(C=C1)NC(=O)C2=CC(=CC=C2)C(C)(C)C#N)NC3=CC4=C(C=C3)N=CN(C4=O)C
# Method in brief: as §1
# [11] = compound: CC1=CC=C(C=C1)SC2=C3C=C(SC3=CN=C2)C(=O)N
# Method in brief: as §1
# [12] = compound: CCCS(=O)(=O)Nc1ccc(F)c(C(=O)c2c[nH]c3ncc(Cl)cc23)c1F
# Method in brief: as §1
Target,log2 fold change (IRAK-1-4 Inhibitor I),log2 fold change [1],log2 fold change (ralimetinib),log2 fold change [2],log2 fold change [3],log2 fold change [4],log2 fold change (pinometostat),log2 fold change [5],log2 fold change [6],log2 fold change (Nexturastat A),log2 fold change (vemurafenib),log2 fold change (givinostat),log2 fold change (ibrutinib),log2 fold change [7],log2 fold change [8],log2 fold change [9],log2 fold change (barasertib),log2 fold change [10],log2 fold change [11],log2 fold change [12]
SCAI isoform 2 (UniProt Q8N9R8),inactive: -0.185,inactive: -0.252,inactive: 0.064,inactive: -0.028,inactive: -0.081,inactive: 0.055,inactive: -0.042,inactive: 0.031,inactive: 0.064,inactive: 0.129,inactive: -0.171,inactive: 0.006,–,–,–,–,–,–,–,–
S100A16 (UniProt Q96FQ6),inactive: 0.108,–,–,inactive: -0.095,inactive: -0.279,–,inactive: -0.199,–,inactive: -0.218,inactive: -0.278,inactive: 0.146,inactive: 0.009,inactive: 0.338,inactive: -0.594,inactive: 0.752,inactive: 0.048,inactive: 0.505,–,–,–
SDCCAG8 (UniProt Q86SQ7),inactive: -0.096,inactive: 0.054,–,–,inactive: 0.03,–,inactive: 0.01,–,inactive: -0.052,–,inactive: 0.243,inactive: 0.099,–,–,inactive: -0.039,–,–,inactive: 0.189,inactive: -0.039,inactive: -0.02
RTN4 isoform 5 (UniProt Q9NQC3),inactive: 0.037,inactive: 0.028,inactive: 0.007,inactive: 0.05,inactive: -0.097,inactive: 0.156,inactive: -0.065,inactive: 0.047,inactive: 0.033,inactive: -0.021,inactive: -0.015,inactive: 0.09,–,inactive: -0.094,inactive: 0.023,–,–,–,inactive: -0.005,inactive: 0.176
SDHAF4 (UniProt Q5VUM1),inactive: -0.071,inactive: -0.055,–,inactive: 0.081,inactive: 0.149,–,inactive: -0.082,–,inactive: 0.022,inactive: -0.039,–,active: 0.368,inactive: 0.01,–,inactive: 0.021,inactive: -0.035,inactive: -0.018,inactive: -0.066,inactive: 0.053,inactive: -0.065
SCLT1 (UniProt Q96NL6),inactive: -0.046,–,–,–,–,–,inactive: 0.005,–,inactive: -0.161,–,inactive: 0.045,–,inactive: -0.049,–,inactive: 0.129,inactive: 0.01,inactive: 0.049,inactive: -0.057,–,–
SAP30 (UniProt O75446),inactive: 0.018,inactive: 0.085,–,inactive: 0.151,inactive: 0.111,–,inactive: 0.111,–,inactive: -0.164,inactive: 0.025,inactive: 0.04,inactive: 0.019,–,–,–,inactive: 0.037,–,inactive: -0.292,inactive: -0.078,inactive: -0.157
SDF2 (UniProt Q99470),inactive: -0.02,–,–,inactive: 0.057,inactive: -0.001,–,inactive: -0.229,–,inactive: 0.149,inactive: 0.013,–,inactive: 0.104,inactive: 0.043,–,inactive: 0.03,–,inactive: -0.105,–,inactive: -0.067,inactive: 0.158
RTN4IP1 (UniProt Q8WWV3),inactive: -0.036,inactive: -0.326,inactive: 0.034,inactive: -0.046,inactive: 0.063,inactive: -0.009,inactive: 0.02,inactive: -0.033,inactive: 0.119,inactive: -0.061,inactive: 0.034,inactive: -0.081,inactive: 0.214,–,inactive: 0.14,inactive: -0.218,inactive: 0.031,inactive: 0.253,inactive: 0.294,inactive: -0.041
SAP130 isoform 3 (UniProt Q9H0E3),inactive: 0.009,inactive: 0.064,inactive: 0.025,–,–,inactive: 0.122,inactive: 0.091,inactive: 0.151,inactive: -0.12,–,inactive: 0.016,–,–,–,–,–,–,–,–,–
RWDD2B (UniProt P57060),inactive: 0.03,inactive: 0.087,inactive: 0.073,–,inactive: -0.216,inactive: 0.045,inactive: 0,inactive: -0.135,inactive: -0.045,–,inactive: 0.167,inactive: -0.145,–,–,–,–,–,inactive: -0.014,inactive: 0.003,inactive: 0.121
SCCPDH (UniProt Q8NBX0),inactive: -0.005,inactive: 0.031,inactive: 0.059,inactive: 0.156,inactive: 0.038,inactive: -0.032,inactive: -0.073,inactive: -0.092,inactive: 0.037,inactive: -0.232,inactive: -0.016,inactive: 0.183,inactive: 0.061,–,inactive: 0.023,inactive: 0.016,inactive: 0.046,inactive: 0.147,inactive: 0.074,inactive: -0.123
RTL8C (UniProt A6ZKI3),inactive: 0.031,–,inactive: 0.137,inactive: -0.19,–,inactive: 0.198,inactive: 0.064,inactive: -0.221,inactive: -0.131,inactive: 0.281,inactive: 0.084,–,–,–,–,–,–,–,inactive: 0.021,inactive: -0.13
SCYL3 isoform 2 (UniProt Q8IZE3),inactive: 0.087,inactive: -0.002,inactive: -0.043,inactive: -0.063,inactive: -0.052,inactive: -0.002,inactive: 0.054,inactive: -0.061,inactive: 0.005,inactive: 0.004,inactive: 0.008,inactive: 0.012,inactive: 0.02,–,inactive: -0.146,inactive: -0.01,inactive: -0.012,–,inactive: -0.002,inactive: 0.022
SCGB2A2 (UniProt Q13296),inactive: 0.408,inactive: 0.173,–,inactive: -0.088,–,–,inactive: -0.215,–,inactive: -0.386,inactive: -0.22,inactive: -0.232,–,inactive: 0.035,inactive: -0.546,inactive: 1,inactive: 0.351,inactive: 0.103,inactive: 0.024,inactive: 0.211,inactive: -0.102
SCAF8 isoform 2 (UniProt Q9UPN6),inactive: 0.035,inactive: -0.145,inactive: -0.054,inactive: -0.169,active: -0.417,inactive: 0.23,inactive: 0.065,inactive: 0.002,inactive: 0.076,inactive: 0,inactive: -0.001,inactive: 0.038,inactive: -0.057,–,inactive: 0.138,inactive: -0.013,inactive: 0.067,inactive: 0.048,inactive: -0.03,inactive: 0.004
SCAMP3 isoform 2 (UniProt O14828),inactive: -0.597,–,inactive: 0.039,inactive: -0.11,–,inactive: 0.064,inactive: -0.354,inactive: -0.043,inactive: 0.109,inactive: 0.058,inactive: -0.183,–,inactive: 0.213,inactive: -0.049,–,inactive: 0.119,inactive: 0.136,–,inactive: -0.081,inactive: 0.027
"SART3, A0A499FI31",inactive: -0.021,inactive: 0.062,inactive: 0.002,inactive: -0.033,active: -0.379,inactive: -0.051,inactive: -0.025,inactive: -0.05,inactive: 0.04,inactive: -0.043,inactive: 0.023,inactive: 0.012,inactive: -0.017,–,active: -0.377,inactive: -0.013,inactive: 0.022,inactive: 0.015,inactive: -0.014,inactive: 0.072
RRP12 (UniProt Q5JTH9),inactive: -0.018,inactive: 0.201,inactive: 0.331,inactive: 0.006,inactive: 0.272,inactive: 0.243,inactive: 0.315,inactive: -0.012,inactive: -0.043,inactive: 0.371,inactive: -0.087,inactive: 0.209,inactive: -0.1,–,inactive: -0.107,inactive: 0.074,inactive: -0.018,inactive: 0.036,inactive: 0.094,inactive: -0.012
SCAF4 (UniProt O95104),inactive: -0.06,inactive: -0.06,–,inactive: -0.164,inactive: -0.2,–,inactive: 0.13,–,inactive: -0.047,inactive: -0.035,inactive: 0.013,inactive: 0.116,inactive: 0.004,inactive: -0.002,inactive: 0.104,inactive: 0.073,inactive: 0.028,inactive: 0.059,inactive: 0.004,inactive: 0.014
SAE1 (UniProt M0R286),inactive: -0.029,–,inactive: -0.207,inactive: 0.115,inactive: 0.22,inactive: 0.374,inactive: 0.015,inactive: 0.069,inactive: 0.06,inactive: -0.218,inactive: -0.04,inactive: 0.042,inactive: -0.105,–,–,inactive: -0.395,inactive: 0.101,inactive: -0.254,inactive: -0.148,inactive: -0.092
SDAD1 (UniProt Q9NVU7),inactive: -0.089,inactive: -0.025,inactive: -0.011,inactive: -0.021,–,inactive: 0.047,inactive: 0.24,inactive: -0.016,inactive: -0.014,inactive: 0.309,–,–,inactive: -0.08,inactive: -0.417,–,inactive: -0.081,inactive: 0.056,inactive: -0.067,–,–
SASH1 (UniProt O94885),inactive: 0.145,inactive: -0.097,inactive: -0.138,inactive: 0.002,inactive: -0.25,inactive: 0.152,inactive: 0.081,inactive: -0.013,inactive: 0.01,inactive: 0.038,inactive: -0.043,inactive: -0.063,inactive: -0.069,–,inactive: 0.07,inactive: -0.031,inactive: 0.071,inactive: 0.046,inactive: 0.024,inactive: 0.097

# Rewritten as tab-separated lines: part of the list above
Target	log2 fold change (IRAK-1-4 Inhibitor I)	log2 fold change [1]	log2 fold change (ralimetinib)	log2 fold change [2]	log2 fold change [3]	log2 fold change [4]	log2 fold change (pinometostat)	log2 fold change [5]	log2 fold change [6]	log2 fold change (Nexturastat A)	log2 fold change (vemurafenib)	log2 fold change (givinostat)	log2 fold change (ibrutinib)	log2 fold change [7]	log2 fold change [8]	log2 fold change [9]	log2 fold change (barasertib)	log2 fold change [10]	log2 fold change [11]	log2 fold change [12]
SART3, A0A499FI31	inactive: -0.021	inactive: 0.062	inactive: 0.002	inactive: -0.033	active: -0.379	inactive: -0.051	inactive: -0.025	inactive: -0.05	inactive: 0.04	inactive: -0.043	inactive: 0.023	inactive: 0.012	inactive: -0.017	–	active: -0.377	inactive: -0.013	inactive: 0.022	inactive: 0.015	inactive: -0.014	inactive: 0.072
RRP12 (UniProt Q5JTH9)	inactive: -0.018	inactive: 0.201	inactive: 0.331	inactive: 0.006	inactive: 0.272	inactive: 0.243	inactive: 0.315	inactive: -0.012	inactive: -0.043	inactive: 0.371	inactive: -0.087	inactive: 0.209	inactive: -0.1	–	inactive: -0.107	inactive: 0.074	inactive: -0.018	inactive: 0.036	inactive: 0.094	inactive: -0.012
SCAF4 (UniProt O95104)	inactive: -0.06	inactive: -0.06	–	inactive: -0.164	inactive: -0.2	–	inactive: 0.13	–	inactive: -0.047	inactive: -0.035	inactive: 0.013	inactive: 0.116	inactive: 0.004	inactive: -0.002	inactive: 0.104	inactive: 0.073	inactive: 0.028	inactive: 0.059	inactive: 0.004	inactive: 0.014
SAE1 (UniProt M0R286)	inactive: -0.029	–	inactive: -0.207	inactive: 0.115	inactive: 0.22	inactive: 0.374	inactive: 0.015	inactive: 0.069	inactive: 0.06	inactive: -0.218	inactive: -0.04	inactive: 0.042	inactive: -0.105	–	–	inactive: -0.395	inactive: 0.101	inactive: -0.254	inactive: -0.148	inactive: -0.092
